Values are the deposited “Percent Effect”, in %. How 0% and 100% were set is not recorded. Most values in the screen are low, and negative values occur. The compounds are a random part of those screened. Two or more numbers in one place are separate tests of the same structure; such repeats can differ widely. A dash means the value is not listed here; it may have been measured.

Sequences of proteins named here, by UniProt entry; tags and fusion partners are left off. Residues count along the entry.
UniProt P9WFT3, whole entry: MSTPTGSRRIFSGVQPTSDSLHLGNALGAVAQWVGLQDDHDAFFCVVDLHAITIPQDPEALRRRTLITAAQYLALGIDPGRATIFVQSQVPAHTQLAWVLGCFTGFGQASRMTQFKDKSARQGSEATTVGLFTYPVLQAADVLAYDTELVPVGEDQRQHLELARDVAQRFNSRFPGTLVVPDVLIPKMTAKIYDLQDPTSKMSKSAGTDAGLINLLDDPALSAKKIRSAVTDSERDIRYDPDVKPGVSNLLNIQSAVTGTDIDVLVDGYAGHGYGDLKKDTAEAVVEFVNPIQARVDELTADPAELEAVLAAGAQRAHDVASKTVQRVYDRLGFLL
UniProt P9WNZ1, whole entry: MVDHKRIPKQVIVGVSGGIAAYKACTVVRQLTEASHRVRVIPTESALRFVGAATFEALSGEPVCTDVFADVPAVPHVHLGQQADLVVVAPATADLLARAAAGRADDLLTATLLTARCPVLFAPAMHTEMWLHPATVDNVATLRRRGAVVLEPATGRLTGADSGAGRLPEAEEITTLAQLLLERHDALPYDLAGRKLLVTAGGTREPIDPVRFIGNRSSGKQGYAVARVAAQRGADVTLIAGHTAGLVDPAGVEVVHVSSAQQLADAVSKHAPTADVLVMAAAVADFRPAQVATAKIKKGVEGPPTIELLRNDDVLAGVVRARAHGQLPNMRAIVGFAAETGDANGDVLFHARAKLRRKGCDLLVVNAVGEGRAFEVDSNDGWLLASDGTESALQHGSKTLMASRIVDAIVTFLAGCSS
UniProt A4I591, 1-473: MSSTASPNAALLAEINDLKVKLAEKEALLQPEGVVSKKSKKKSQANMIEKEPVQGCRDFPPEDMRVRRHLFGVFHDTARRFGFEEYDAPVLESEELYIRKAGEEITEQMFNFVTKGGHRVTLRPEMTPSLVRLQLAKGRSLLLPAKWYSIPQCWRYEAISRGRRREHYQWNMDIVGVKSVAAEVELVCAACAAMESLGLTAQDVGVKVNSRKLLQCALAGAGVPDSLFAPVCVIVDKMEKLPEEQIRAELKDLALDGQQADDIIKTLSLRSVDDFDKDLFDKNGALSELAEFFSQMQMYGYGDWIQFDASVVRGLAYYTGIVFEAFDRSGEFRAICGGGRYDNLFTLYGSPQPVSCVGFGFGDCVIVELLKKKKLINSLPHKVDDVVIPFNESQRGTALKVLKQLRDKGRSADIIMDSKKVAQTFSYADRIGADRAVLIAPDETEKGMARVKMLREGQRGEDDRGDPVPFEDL
UniProt I6X8D2, whole entry: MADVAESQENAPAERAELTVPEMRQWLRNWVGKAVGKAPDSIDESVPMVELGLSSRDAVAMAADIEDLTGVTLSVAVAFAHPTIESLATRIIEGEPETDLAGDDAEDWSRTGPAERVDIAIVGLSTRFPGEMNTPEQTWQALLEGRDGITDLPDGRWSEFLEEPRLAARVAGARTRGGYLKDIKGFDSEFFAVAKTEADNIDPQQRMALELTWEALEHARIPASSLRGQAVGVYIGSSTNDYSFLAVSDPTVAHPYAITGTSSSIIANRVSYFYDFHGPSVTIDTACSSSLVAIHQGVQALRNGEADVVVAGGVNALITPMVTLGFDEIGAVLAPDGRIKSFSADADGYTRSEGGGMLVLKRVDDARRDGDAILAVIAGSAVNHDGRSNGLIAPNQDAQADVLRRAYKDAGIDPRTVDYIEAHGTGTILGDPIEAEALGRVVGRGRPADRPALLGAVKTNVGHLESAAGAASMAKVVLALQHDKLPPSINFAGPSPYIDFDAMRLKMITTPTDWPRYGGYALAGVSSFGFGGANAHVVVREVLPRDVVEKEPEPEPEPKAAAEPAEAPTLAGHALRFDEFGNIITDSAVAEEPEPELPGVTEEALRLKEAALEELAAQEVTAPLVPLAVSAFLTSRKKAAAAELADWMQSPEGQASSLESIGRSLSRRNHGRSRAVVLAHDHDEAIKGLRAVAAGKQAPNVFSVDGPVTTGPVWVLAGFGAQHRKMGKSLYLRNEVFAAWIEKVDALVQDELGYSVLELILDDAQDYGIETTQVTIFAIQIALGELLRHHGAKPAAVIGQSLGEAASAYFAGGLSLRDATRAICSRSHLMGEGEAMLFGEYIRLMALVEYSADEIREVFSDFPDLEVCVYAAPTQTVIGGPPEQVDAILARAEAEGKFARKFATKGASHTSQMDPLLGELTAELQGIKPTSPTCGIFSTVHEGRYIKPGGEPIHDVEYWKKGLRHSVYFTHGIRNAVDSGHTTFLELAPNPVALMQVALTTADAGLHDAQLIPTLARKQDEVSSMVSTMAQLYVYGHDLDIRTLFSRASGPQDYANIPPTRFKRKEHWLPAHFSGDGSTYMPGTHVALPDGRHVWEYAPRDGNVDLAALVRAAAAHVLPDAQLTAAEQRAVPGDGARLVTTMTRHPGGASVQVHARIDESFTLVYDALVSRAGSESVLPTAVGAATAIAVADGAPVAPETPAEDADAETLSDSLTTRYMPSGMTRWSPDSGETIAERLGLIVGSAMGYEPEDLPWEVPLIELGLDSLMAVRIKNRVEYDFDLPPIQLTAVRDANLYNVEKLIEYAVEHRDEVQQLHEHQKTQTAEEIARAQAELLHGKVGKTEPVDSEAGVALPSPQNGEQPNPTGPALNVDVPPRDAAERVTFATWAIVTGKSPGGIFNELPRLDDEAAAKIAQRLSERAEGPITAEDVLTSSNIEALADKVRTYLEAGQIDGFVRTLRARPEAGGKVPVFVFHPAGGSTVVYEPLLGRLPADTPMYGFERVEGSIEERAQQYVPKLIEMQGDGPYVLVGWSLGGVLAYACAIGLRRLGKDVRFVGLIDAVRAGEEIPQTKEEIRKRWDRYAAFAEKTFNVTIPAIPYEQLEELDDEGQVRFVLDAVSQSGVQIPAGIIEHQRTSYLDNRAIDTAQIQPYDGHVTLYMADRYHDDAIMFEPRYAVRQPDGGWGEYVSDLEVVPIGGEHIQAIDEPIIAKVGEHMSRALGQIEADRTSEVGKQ

MtTrpRS: 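Enzyme assay of tryptophanyl-tRNA synthetase; the read-out is not stated. Target: Tryptophan-tRNA ligase, Mycobacterium tuberculosis (UniProt P9WFT3). Tested at 10 µM. Direction is not recorded; retested compounds ran higher, which suggests that high means inhibition. Of about 65,000 compounds tested this way, about 64 (0.098%) reached 50% or more in at least one test.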
CoaBC: 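Enzyme assay of CoaBC with a phosphate dye (Biomol Green) read at 650 nm. Target: Coenzyme A biosynthesis protein CoaBC, Mycobacterium tuberculosis (UniProt P9WNZ1). Tested at 30 µM. Direction is inferred from only a few compounds that gave an IC50; most scored high, so higher reads as stronger inhibition. Most strong results did not repeat in a second test. Of about 67,000 compounds tested this way, about 40 (0.06%) reached 50% or more in at least one test.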
LiHisRS: 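Histidine-tRNA ligase, Leishmania infantum (UniProt A4I591). Enzyme assay of histidyl-tRNA synthetase; the read-out is not stated. Concentration: 30 µM. Direction is inferred from retests: higher values go with stronger inhibition. The assay is labelled LdHisRS but filed under L. infantum. About 69,000 compounds were tested under these conditions; 0.6% (about 410) showed 50% or more at least once.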
Pks13 thioesterase: 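Enzyme assay of the thioesterase domain of polyketide synthase 13; the read-out is not stated. Target: Polyketide synthase Pks13, Mycobacterium tuberculosis (UniProt I6X8D2). Tested at 30 µM. The record gives no direction; the compounds picked for IC50 retests had high values, so higher reads as stronger inhibition. Size under these conditions: about 67,000 compounds, about 300 of them at 50% or above in at least one test.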

structure,MtTrpRS,CoaBC,LiHisRS,Pks13 thioesterase
O=C(NCC1CCCCC1)N1C[C@@H]2C[C@H]1CN2,-6.386%,6.87%,19.42%,-22.54%
Cc1cc(C(=O)N(C)S(C)(=O)=O)ccc1F,0.5198%,-0.4032%,0%,14.17%
COCCCNC1CCCN(c2ccc(C)nn2)C1 (stereo not drawn),-0.273%,3.213%,25.37%,-15.14%
Cn1ccc2c(C(=O)NCCCN3CCOCC3)cccc21,5.658%,2.025%,5.263%,26.42%
COc1ccc(C(NC(=O)NCc2nnc3n2CCC3)C2CC2)cc1 (stereo not drawn),17.4%,1.071%,15%,-18.58%
CC(C)(C)CC(NC(=O)N1CCC(C(N)=O)CC1)C(F)(F)F (stereo not drawn),0.08937%,0.994%,12%,-14.63%
O=C(NCc1nccn1CCc1ccccc1)NCC1CCC1,-2.513%,0.8092%,21.43%,-17.82%
CCCn1ncc(C(=O)N(C)Cc2cc(C3CC3)[nH]n2)c1C,-7.343%,-1.214%,9.524%,26.14%
CCc1nc(C2CCCN2C(=O)c2nc(C)n3ccccc23)no1 (stereo not drawn),-0.7601%,2.477%,9.459%,75.34%
O=C(NCc1cccnc1)N1CCSCC1CCO (stereo not drawn),2.75%,-2.114%,12.61%,-13.22%
COc1ccc(C2CNCCN2C(=O)c2cccc3ncccc23)cc1 (stereo not drawn),-9.262%,-9.202%,4.255%,8.253%
CC(C)N(CCNC(=O)c1n[nH]c2ccccc12)C(C)C,-4.741%,4.4%,20.51%,-26.63%
Cc1ccc(-c2nc(CNC3CCc4ncnn4C3)no2)cc1 (stereo not drawn),-2.715%,1.149%,6.25%,4.737%
Cc1ccnc(OC[C@]23COC[C@H]2CN(C(=O)c2ncccn2)C3)n1,22.78%,-5.926%,11.11%,64.05%
Cn1ccnc1-c1nc(N2CCCCC2)ncc1-c1ccccc1F,-1.893%,-14.04%,6.993%,1.628%
Cc1cnn(C2CN(CC(O)COc3ccc(C#N)cc3)C2)c1 (stereo not drawn),3.537%,-2.642%,7.08%,-
Cc1cnn(CC2CCCN2Cc2coc(-c3ccc(F)cc3)n2)c1 (stereo not drawn),6.555%,6.53%,22.22%,-7.046%
c1ccc(-c2nnc3sc(CCN4CCCC4)nn23)cc1,1.455%,2.421%,6.522%,-13.31%
Cc1nc(N)nc(C)c1CC(=O)N1CCC2(CC1)OCCCC2O (stereo not drawn),-0.9266%,-9.524% and 47.02%,6.667%,-16.55%
Cc1ncsc1C(=O)NCCc1cccs1,2.225%,9.589%,7.339%,-18.73%
Cc1nnc(C2Cc3ccccc3CN2Cc2c(C)noc2C)o1 (stereo not drawn),-1.379%,1.567%,16.81%,-15.67%
Cc1noc(C2CCN(c3oc(C)nc3C#N)CC2)n1,0.07886%,1.882%,5.085%,-2.488%
Cc1cccc2c1nc1n2[C@@H](CNC(=O)Cc2ccccc2)COC1,1.29%,5.96%,12.16%,-1.906%
Cc1ccccc1CN(Cc1ccccn1)C(=O)CN(C)C(C)C,-2.204%,1.814%,11.29%,-16.54%
Cc1ccc(C2(O)CCN(Cc3nc(C)n4ccccc34)CC2)nc1,3.662%,15.77%,16.53%,-11.48%
O=C(NCC1CC1)c1cc(Cl)c2c(c1)OCCCO2,11.17%,-6.438%,4.918%,4.536%
Cn1nnnc1SCC1(O)CCCCC1,2.352%,-2.217%,8.333%,-19.33%
O=C(c1ccco1)N1CCC(CSCc2ccco2)CC1,-1.715%,2.941%,11.11%,-6.98%
c1ccc(-c2noc(CCCN3CCCC3Cn3cncn3)n2)cc1 (stereo not drawn),-4.583%,17.98%,12.5%,-
O=c1c(CN2CCSCC2)coc(O)c1CN1CCCC1,4.019%,-3.038%,19.57%,-
CCn1cc(NC(=O)C2CCN(Cc3nc(C)c(C)s3)CC2)cn1,0.719%,1.272%,10.26%,-8.796%
Cc1nc(C)n(CC2CCCN2c2ncnc3ccsc23)n1 (stereo not drawn),1.183%,4.845%,3.509%,-5.569%
Cc1csc(CNC(=O)NCC(C)Cn2nc(C)cc2C)n1 (stereo not drawn),0.1899%,-1.167%,8.108%,-14.87%
CC/N=c1\nc(NCC)nc2n1C(O)(Nc1cc(C)ccc1C)CS2 (stereo not drawn),-0.4428%,-2.663%,10.87%,2.589%
Cn1cc(CNc2ccc(CCN3CCC(C(N)=O)CC3)cc2)cn1,-2.999%,5.511%,0%,-17.36%
CCCN(CC(F)F)C(=O)CCc1c(C)nc2cc(O)nn2c1C,6.184%,12.44%,28.72%,3.865%
CC(=O)c1c(C)nn(CC(=O)N2Cc3cnc(CC(C)C)nc3C2)c1C,0.2283%,1.202%,8.333%,-11.67%
Cc1nccc([C@@H]2C[C@@H]3CCN(Cc4cccs4)C[C@H]3O2)n1,-5.088%,0.2179%,15.79%,-9.537%
Cc1nccn1-c1cc(CNC(=O)C2CCCO2)ccn1 (stereo not drawn),-0.8839%,3.259%,13.16%,-9.935%
CCn1ncnc1C(C)NC(=O)C1CCN(C(C)C)CC1 (stereo not drawn),-2.515%,0%,13.21%,-18.04%
O=S(=O)(Cc1ccc(F)cc1)N1CCN(CC(O)C2CC2)CC1 (stereo not drawn),-0.4691%,0.8739%,3.306%,-3.712%
NS(=O)(=O)CCNC(=O)c1nnn(-c2ccc(F)cc2)c1C1CC1,-1.313%,3.52%,11.54%,-11.14%
O=C(CCNc1ncccn1)N1CCN(c2nccs2)CC1,17.37%,-18.28%,6.14%,-19.74%
NC(=O)c1ccc(N2CCN(Cc3c(Cl)cncc3Cl)CC2)nc1,11.24%,6.452%,-3.947%,8.174%
Cn1ccnc1CN1CCCCC1c1nc(-c2ccccc2)no1 (stereo not drawn),-9.213%,12%,25.64%,-24.19%
COc1c(CNC2CCCN(c3ncccn3)C2)c(C(C)C)nn1C (stereo not drawn),67.72%,1.149%,-0.8929%,-19.32%
CC(C)N(C)Cc1cnc2n1CCN(C(=O)Cc1ccccn1)C2,15.1%,-1.713%,17.81%,-30.36%
CC(C)CC(=O)N1CCC2(CC1)OCCO2,1.905%,0.2336%,16.81%,-9.903%
Cc1cnn(C2CN(Cc3nc(-c4cccnc4)no3)C2)c1,-5.258%,5.548%,13.91%,-5.975%
COc1ccc(CN2CCN(c3ncc(Cl)cn3)CC2)cc1,-1.154%,1.72%,4.301%,-0.08745%
Cc1cccc(CN(Cc2ccccn2)Cc2ncc(C(C)(C)C)o2)c1,-5.004%,4.914%,18.25%,25.87%
Cc1cc(N2CCC(NC(=O)CCc3ccco3)CC2)nc(C)n1,-0.2469%,0%,20%,-7.493%
COc1cccc(-n2c(C)cc(C(=O)NCCCC(N)=O)c2C)c1,-7.794%,2.625%,1.695%,1.832%
N#Cc1cccnc1NCc1cccnc1N1CCC(C(N)=O)CC1,1.509%,-0.8811%,22.64%,-4.448%
COCC1CN(S(=O)(=O)N(C)C)Cc2cnn(CC3CCCC3)c21 (stereo not drawn),2.212%,12.77%,16.22%,-
Cn1cc(N2CCCC(SCc3nc(C4CC4)no3)C2=O)cn1 (stereo not drawn),4.881%,0.3797%,22.5%,11.71%
Cc1cc(C2CCCN2Cc2nc3ccccc3o2)on1 (stereo not drawn),-5.791%,8.731%,11.4%,1.397%
Cc1cc(C)n(-c2ccc(N3CCC4(CC3)OCCO4)nc2)n1,-32.48%,2.008%,16.42%,-8.524%
CS(=O)(=O)NCc1noc2c1CN(C(=O)c1ccsc1)CC2,-6.221%,4.713%,4%,-32.6%
Cc1cc(CNC(=O)N(Cc2ccc(F)cc2F)C2CC2)no1,29.93%,-6.633%,3.636%,-15.27%
O=C(O)c1ccccc1-c1cnc(Cn2c(=O)cc[nH]c2=O)s1,-1.737%,-1.595%,8.511%,4.575%
O=C(Nc1ccc(N2CCCCC2)cn1)C1CCCN1C(=O)C1CC1 (stereo not drawn),0.8396%,10.15%,22.86%,-34.97%
CS(=O)(=O)N1CCc2ncc(CNC(=O)C3CCC3)n2CC1,0.09075%,-0.9877%,5.556%,-13.75%

5 of the entries, repeated:

For Cc1cccc(CN(Cc2ccccn2)Cc2ncc(C(C)(C)C)o2)c1 the result was MtTrpRS: -5.004%; CoaBC: 4.914%; LiHisRS: 18.25%; Pks13 thioesterase: 25.87%.
For O=C(O)c1ccccc1-c1cnc(Cn2c(=O)cc[nH]c2=O)s1 the result was MtTrpRS: -1.737%; CoaBC: -1.595%; LiHisRS: 8.511%; Pks13 thioesterase: 4.575%.
For Cc1csc(CNC(=O)NCC(C)Cn2nc(C)cc2C)n1 (stereo not drawn) the result was MtTrpRS: 0.1899%; CoaBC: -1.167%; LiHisRS: 8.108%; Pks13 thioesterase: -14.87%.
For Cc1cnn(C2CN(CC(O)COc3ccc(C#N)cc3)C2)c1 (stereo not drawn) the result was MtTrpRS: 3.537%; CoaBC: -2.642%; LiHisRS: 7.08%.
For Cc1cc(C2CCCN2Cc2nc3ccccc3o2)on1 (stereo not drawn) the result was MtTrpRS: -5.791%; CoaBC: 8.731%; LiHisRS: 11.4%; Pks13 thioesterase: 1.397%.

The values are deposited in ChEMBL (CHEMBL3988442, “University of Dundee, Small-Polar-MMV Screening Library” (2021)).